Test results from the supplement of paper PMC3334620.
In all, about 33,000 sequences were measured (“E-score (-0.5 to 0.5)”: median about -0.015, highest 2% from about 0.3 on). This is one part of the list.

What follows are sequences tested against T1, Abf1 (UniProt P14164) (assay: PBM E-score (8-mer binding enrichment) (E-score (-0.5 to 0.5)); higher = stronger / more preferred TF binding). Settings: protein concentration: 200 nM; construct: GST-full length.
T1 sequence: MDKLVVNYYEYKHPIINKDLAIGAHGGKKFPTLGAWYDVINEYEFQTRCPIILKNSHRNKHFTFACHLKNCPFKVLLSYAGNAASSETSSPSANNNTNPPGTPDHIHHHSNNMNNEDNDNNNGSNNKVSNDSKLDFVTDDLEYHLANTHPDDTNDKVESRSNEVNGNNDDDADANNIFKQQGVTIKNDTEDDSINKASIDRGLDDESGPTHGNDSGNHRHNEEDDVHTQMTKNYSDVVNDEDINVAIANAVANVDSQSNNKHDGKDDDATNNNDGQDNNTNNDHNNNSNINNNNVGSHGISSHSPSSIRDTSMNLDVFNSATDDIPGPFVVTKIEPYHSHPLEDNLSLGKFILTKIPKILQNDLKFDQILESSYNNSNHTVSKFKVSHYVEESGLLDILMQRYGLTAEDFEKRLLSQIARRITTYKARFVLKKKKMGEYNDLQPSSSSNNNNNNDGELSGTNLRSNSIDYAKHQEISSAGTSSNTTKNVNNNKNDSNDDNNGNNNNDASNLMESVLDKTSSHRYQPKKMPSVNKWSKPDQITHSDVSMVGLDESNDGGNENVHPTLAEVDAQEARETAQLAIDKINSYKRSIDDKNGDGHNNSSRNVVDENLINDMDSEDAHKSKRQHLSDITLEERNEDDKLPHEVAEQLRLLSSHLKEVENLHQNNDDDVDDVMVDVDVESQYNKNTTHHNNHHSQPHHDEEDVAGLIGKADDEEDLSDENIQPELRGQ
Procedure, shortened: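 For each ungapped eight-base word taken together with its reverse complement, the Universal PBM Analysis Suite assigned an E-score. Binding data came from GST-tagged yeast transcription factors, applied at about 100-200 nM, on universal all-10-mer Agilent arrays made double-stranded by primer extension. Fluorescent anti-GST marked bound protein, and scans were normalised with masliner.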

| Sequence | PBM E-score |
| --- | --- |
| AAACAAGA | -0.0172 |
| ACATGCCT | -0.225 |
| ATTCTGAG | -0.019 |
| TATTGTCA | 0.263 |
| ATTTCACA | 0.118 |
| CATCTTCG | 0.00373 |
| GTCACTGA | 0.253 |
| CTTACAAA | -0.0513 |
| ACCGCCGA | 0.0103 |
| GTCAATTA | 0.144 |
| ACGGTGCG | 0.128 |
| ACACGAAA | 0.288 |
| TAGTTATA | 0.0993 |
| CGCGATCC | -0.00259 |
| GACAATGC | 0.15 |
| GAGATCCA | -0.0103 |
| AATTCCGA | 0.0805 |
| AGATCTGG | -0.379 |
| AGAGATTC | -0.0726 |
| GGCAACAA | -0.227 |
| CCCCGTAC | 0.154 |
| GGCTGCCA | -0.246 |
| AACGGAGC | 0.0288 |
| CACACGTC | -0.0019 |
| AAGTCACT | 0.304 |

| Sequence | PBM E-score |
| --- | --- |
| CAGATGTC | 0.0203 |
| ACTCCCGG | -0.158 |
| GAGGAAGC | -0.196 |
| ATGACAGC | 0.199 |
| CTCAGCTC | -0.133 |
| CCTCCCTA | -0.271 |
| GATGGAGA | -0.00795 |
| AAGATCTC | 0.0478 |
| GGGAACAC | 0.0308 |
| AATACTAG | 0.0756 |
| CGACCAAC | 0.0229 |
| ACGGGGCC | 0.0234 |
| CTTTAAGC | -0.0358 |
| CTCGATCC | -0.0517 |
| CTCTACCC | -0.119 |
| AGACACCG | -0.149 |
| ACCCATGC | 0.00843 |
| TCATCAGA | 0.094 |
| AACCAACG | -0.0962 |
| TATTTCGA | 0.272 |
| GGTGGTAC | -0.0732 |
| GAAATAGC | 0.0369 |
| TGATCAAA | 0.103 |
| ATAGTAAA | 0.187 |
| CAACCCGG | -0.26 |

| Sequence | PBM E-score |
| --- | --- |
| CCAGTCAC | 0.0589 |
| CGTTACCC | -0.152 |
| CTGCGGCA | -0.149 |
| AACCGCCA | -0.267 |
| AGCGAGCC | -0.135 |
| AGAGAGTC | -0.351 |
| ACCCAAGA | -0.0267 |
| GACGTACA | 0.0733 |
| GTTTCAGA | 0.124 |
| CCGTCGGC | -0.0924 |
| CAATGGTG | -0.354 |
| ATGGTTCC | 0.00886 |
| CGACCGAG | -0.112 |
| GTGGGAGA | 0.114 |
| CAACTTGC | -0.105 |
| CATCGAGA | 0.0311 |
| AAAATTGC | -0.09 |
| AGCTCTGG | -0.125 |
| CGCGCACA | -0.0973 |
| AAAATGTC | 0.194 |
| ACTCCGAC | -0.13 |
| ATGCTAAC | -0.14 |
| CTCAGAAG | -0.218 |
| ACGGGTGG | 0.0777 |
| CATAACAA | 0.138 |

| Sequence | PBM E-score |
| --- | --- |
| AGACCGCT | -0.207 |
| CCACCTAA | -0.0747 |
| AAGTCGCC | -0.191 |
| GTGGGCAA | -0.0734 |
| CCTGGACC | -0.176 |
| ACCCCACG | -0.275 |
| ATCGGAAC | 0.0182 |
| GCGCTAAC | 0.03 |
| CAGGCAAA | 0.00767 |
| AAATCCCC | -0.106 |
| CCAGAGCG | -0.0906 |
| ACGTCTAC | 0.0532 |
| AACTTGGC | -0.0897 |
| AGCCTGAA | -0.0124 |
| ATGCTCGC | 0.0107 |
| CTAACTAA | 0.0202 |
| ACCATTGG | -0.0534 |
| ACTGACGG | -0.0335 |
| ACTCCCTC | -0.0922 |
| GACGCATA | 0.0893 |
| CATGAATA | -0.0266 |
| ACACACTC | -0.103 |
| AACGCCTA | -0.0686 |
| CGGGAACG | -0.153 |
| ACCCCGAG | -0.147 |

| Sequence | PBM E-score |
| --- | --- |
| AGTCCTCG | -0.0929 |
| AGGCCTGC | -0.312 |
| GGAGCGGA | -0.179 |
| AAGTGTGG | -0.198 |
| ATCACACA | 0.195 |
| CATCGACA | -0.117 |
| ATCCTGGA | 0.076 |
| GGTCCATA | -0.181 |
| ATGATTTC | 0.275 |
| CCCCCAGG | -0.315 |
| GTGAAACA | 0.0972 |
| GCATTGAA | 0.0569 |
| GTAGCGAC | 0.0621 |
| CGTAAAAC | 0.0953 |
| CGACATTA | 0.317 |
| GTAGCCTA | -0.102 |
| ACTCTGAC | -0.0634 |
| GGCCTAGA | -0.0468 |
| AGGTAGTC | -0.187 |
| AGCCAGAC | -0.15 |
| GGCCAGGA | -0.0402 |
| CGTGTCCC | 0.0114 |
| ACTCATCG | -0.0101 |
| GACAGGAC | -0.142 |
| GCTAACGA | 0.175 |

Looked up above.
PBM E-score, GGTCCATA is entered as -0.181
PBM E-score, AGCCAGAC is entered as -0.15
PBM E-score, AGTCCTCG is entered as -0.0929
PBM E-score, GTAGCCTA is entered as -0.102

Some of the entries so far, comma-delimited.
Sequence,PBM E-score
AAGTGTGG,-0.198
ATCACACA,0.195

(further entries)

| Sequence | PBM E-score |
| --- | --- |
| AACTTACA | -0.0171 |
| CATAAATG | 0.115 |
| CATCTTTC | 0.158 |
| ACACCCAT | -0.00346 |
| GGGGGATA | -0.194 |
| GCGCTACA | 0.0648 |
| AAATGTCC | -0.0483 |
| AATGGCGT | -0.201 |
| AAATTCCC | -0.108 |
| AAGGCACG | 0.107 |
| AAGTAAGA | -0.141 |
| ATATAGAT | 0.14 |
| AACCCACG | 0.0411 |
| GTCGTGTA | 0.239 |
| TCACCCCA | 0.204 |
| AATATCCA | 0.0292 |
| AGTATGAC | 0.186 |
| CACCCCAG | -0.214 |
| CCGTCAAC | 0.154 |
| AATCCACA | 0.061 |
| AGGTTGGG | -0.142 |
| GAGTGGAC | -0.0943 |
| GCGATGAC | 0.21 |
| AAAATGTG | 0.059 |
| CCGTGATA | 0.283 |

| Sequence | PBM E-score |
| --- | --- |
| AAGCTAGA | -0.0775 |
| GGAAGATA | 0.00856 |
| CGCACCTC | -0.0211 |
| AAACCAGG | -0.122 |
| ACCCTCAC | -0.0629 |
| GATTTCCA | -0.147 |
| ATAGCTGA | -0.118 |
| CATGTTAC | 0.146 |
| GTAGCAAA | 0.259 |
| CAGTTGCA | 0.0689 |
| ATCGGCAT | 0.0011 |
| CACTCTTC | -0.0643 |
| CAGCCCCG | -0.218 |
| CCATAGCC | -0.212 |
| CCGGCCGA | -0.103 |
| TAGCGTCA | -0.0771 |
| CACGCAGG | 0.00487 |
| CGACAGCC | -0.218 |
| AAGACATC | -0.0907 |
| GTTAATGA | 0.179 |
| CCGTCTTA | 0.156 |
| GACTTGAC | -0.131 |
